# Source: PubChem BioAssay AID2685 (National Center for Advancing Translational Sciences (NCATS), 2010)
# Out of some 320,000 compounds screened, about 2,100 (0.66%) were called active. Inconclusive results, whose numbers are uncertain, are shown with a selection of clear calls. Calls come from the whole dose curve; as a rule, active = well fitted inhibition curve with a large enough effect in the signal ratio, with a control signal flat (not every such curve was filed as active); inconclusive = small, poorly fitted or top-dose-only effect, or effect the other way, or a change in a side signal; inactive = flat fitted curve, though single readings scatter; the % refers to the signal ratio. A potency beside an inconclusive call is a rough fit, not a confirmed value.
# Assay: qHTS Assay for Lipid Storage Modulators in Drosophila S3 Cells
# Conditions: BODIPY lipid droplet fluorescence, 18-24 h, cells fed with added oleic acid; lipid storage change, negative = inhibition: at 46.1 µM (top of the series) unless noted
# Outline: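 Drosophila S3 cells loaded with oleic acid (400 uM, as added) and compounds at several concentrations; lipid droplets imaged by 488-nm laser-scanning cytometry, 500–530 nm intensity and object ratio to cell channel. Percent activity normalized to 20 uM Triacsin C.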
# % is set by controls: 0 for no effect and ±100 for the full control effect; potency is the fitted concentration of half-maximal effect.
SMILES,Potency,"lipid storage change, negative = inhibition"
O=C(c1cccs1)N1CCN(C(=O)N2CCOCC2)CC1,"inconclusive: 23.1 µM [falling, single point]",–
O=c1[nH]c(Nc2nc3ccccc3o2)nc2c1CCCC2,–,inconclusive: 10.6%
O=C(O)C(Cc1ccccc1)Nc1ccc([N+](=O)[O-])cc1[N+](=O)[O-] (stereo unspecified),–,inconclusive: 220%
Cc1cccc(/C(N)=N/OC(=O)CCCc2ccccc2)c1,–,inconclusive: 28.2%
CCN(CC)C(=O)CSc1nnc(-c2ccc(S(=O)(=O)NCc3ccccc3Cl)cc2)o1,–,inconclusive: -0.0101%
COCCCN=C1NN=C(c2cc(C)n(-c3ccccc3F)c2C)CS1,–,inconclusive: 10.5%
CCOC(=O)N1CCC(NC(=O)C(NC(=O)C2CCCCC2)C(C)C)CC1 (stereo unspecified),–,inconclusive: -49.6%
O=C(CSc1nc2ccccc2o1)N1CCN(C(=O)c2ccco2)CC1,–,inconclusive: 37.2%
CC1=C(C)CC(C(=O)NCCCN2CCCC2=O)C(C(=O)O)C1 (stereo unspecified),–,inconclusive: 2.98%
O=S(=O)(NC(=NC1CCCCC1)c1ccccc1F)c1ccccc1,–,inconclusive: -16.9%
COC(=O)[C@H](Cc1ccccc1)NC(=O)NCCc1ccc(F)cc1,–,inconclusive: 11.7%
Cc1cc(SCC(=O)c2cccc([N+](=O)[O-])c2)nc(=O)[nH]1,–,inconclusive: -45.5%
CC(C)(C)c1cc(-c2ccccc2)no1,–,inconclusive: -23.4%
O=C(Nc1c2ccccc2nc2ccccc12)C(Cl)(Cl)Cl,–,inconclusive: -11.6%
CCOC(=O)CSc1nc2cc(S(=O)(=O)Nc3ccccc3OC)ccc2o1,active: 29.1 µM,–
Cc1ccc(S(=O)(=O)N2CCN(C(C)C(=O)Nc3ccccc3-c3ccccc3)CC2)cc1 (stereo unspecified),–,inconclusive: -8.76%
COc1ccc([N+](=O)[O-])cc1NC(=O)c1ccccc1N(C)S(C)(=O)=O,–,inactive
CC(Oc1ccc(Cl)cc1Cl)C(=O)NCCCN(C)C (stereo unspecified),–,inconclusive: -7.24%
Cc1cc(C)c(NC(=O)CNC(=O)Cc2ccc(S(=O)(=O)N3CCOCC3)s2)c(C)c1,"inconclusive: 29.1 µM [cytotoxic, single point]",–
O=C(NC(=S)Nc1cccc(CO)c1)c1ccc(-c2ccccc2)cc1,"inconclusive: 1.16 µM [rising, partial curve]",–
COc1cc2c(cc1OC)C(c1cc(C)ccc1C)CC(=O)N2 (stereo unspecified),–,inconclusive: -15.4%

# Full records, quoted from the list. Values in the order: Potency | lipid storage change, negative = inhibition
# Cc1cc(C)c(NC(=O)CNC(=O)Cc2ccc(S(=O)(=O)N3CCOCC3)s2)c(C)c1 in the list: inconclusive: 29.1 µM [cytotoxic, single point] | –
# O=C(c1cccs1)N1CCN(C(=O)N2CCOCC2)CC1 in the list: inconclusive: 23.1 µM [falling, single point] | –
# COc1cc2c(cc1OC)C(c1cc(C)ccc1C)CC(=O)N2 (stereo unspecified) in the list: – | inconclusive: -15.4%

# 2 records picked at random from the list so far, as already listed:
SMILES,Potency,"lipid storage change, negative = inhibition"
COCCCN=C1NN=C(c2cc(C)n(-c3ccccc3F)c2C)CS1,–,inconclusive: 10.5%
CC(C)(C)c1cc(-c2ccccc2)no1,–,inconclusive: -23.4%

# (listing goes on)

SMILES,Potency,"lipid storage change, negative = inhibition"
C[C@H](NC(=O)[C@H]1N2C(=O)c3ccccc3C2SC1(C)C)C(=O)N1CCC[C@H]1CO (stereo partly specified),–,inconclusive: 4.26%
COc1ccc(C(=O)Nc2nc(C)c(C)s2)cc1OC,"inconclusive: 1.16 µM [activator, full curve]",–
COc1ccc(OCc2n[nH]c(=S)n2N)cc1,–,inconclusive: 7.97%
COc1cc(OC)cc(C(=O)Nc2ncn[nH]2)c1,–,inconclusive: -38.2%
O=C(N/N=C/c1ccccc1O)C1SCCCS1,–,inconclusive: -15.5%
COc1ccc(/C=C/C(=O)OCc2nc3ccccc3c(=O)[nH]2)c(OC)c1,–,inconclusive: -5.5%
Cc1nc2ncnn2c(C)c1CCC(=O)N1CCN(C(=O)c2ccco2)CC1,–,inconclusive: 104%
O=C(Nc1nnc(Cc2ccccc2)s1)c1cnccn1,–,inconclusive: -14.1%
O=[N+]([O-])c1cc([N+](=O)[O-])c(Oc2cncc(Cl)c2)cc1NC1CCCCCCC1,–,inconclusive: -6.58%
Cc1nn(C)c(Cl)c1CN1CCN(CCC(C)C)C(CCO)C1 (stereo unspecified),–,inactive
CC(=O)c1cc2c(ccc3ccccc32)oc1=O,"inconclusive: 6.51 µM [activator, single point]",–
COc1ccc(C2NC(=O)NC(c3ccccc3)=C2c2nc3ccccc3s2)cc1 (stereo unspecified),–,inconclusive: 202%
CCOC(=O)CC/C(=N\NC(N)=O)c1ccc(OC)c(Cl)c1,–,inconclusive: 5.34%
O=C(O)CN1C(=O)SC(Nc2ccccc2)C1=O (stereo unspecified),–,inactive
COc1ccc(CCNC(=O)c2cccc(S(=O)(=O)N3CCOCC3)c2)cc1OC,"inconclusive: 0.0052 µM [falling, full curve, poor fit]",–
CCCNC(=O)N1CCN(S(=O)(=O)c2ccc3c(c2)OCCO3)CC1,"inconclusive: 0.731 µM [activator, full curve, poor fit]",–
COc1cc(C2Nc3ccccc3C(=O)N2NS(C)(=O)=O)c([N+](=O)[O-])cc1OC (stereo unspecified),–,inconclusive: 8.63%
COCC(=O)N(c1ccccc1)C(C)C(=O)OC (stereo unspecified),–,inconclusive: 3.58%
CCCN1CCN(CCCNC(=O)c2ccc3c(=O)n(CCc4ccccc4)c(=O)[nH]c3c2)CC1,–,inconclusive: 74.8%
Cc1c(CC=C(Cl)Cl)c(=O)[nH]c2c(C)cccc12,–,inconclusive: -3.17%
CC1=CC2=NC(=O)CC(C)(C(=O)N(CC(=O)NC(C)(C)C)C3CCCC3)N2C=C1 (stereo unspecified),–,inconclusive: 50.9%

SMILES,Potency,"lipid storage change, negative = inhibition"
N#Cc1ccccc1OCC(=O)OCC(=O)c1ccc2c(c1)NC(=O)CO2,–,inconclusive: -16.7%
O=C(CS(=O)(=O)c1ccccc1)Nc1ccc(N2CCOCC2)cc1,–,inconclusive: -22.2%
O=C(COC(=O)CNC(=O)c1ccc(Cl)cc1Cl)NCC1CCCO1 (stereo unspecified),–,inconclusive
COc1ccccc1OCC(=O)Nc1ccccc1C(=O)NCc1cccnc1,–,inconclusive: -38.6%
COc1ccc(C2CC(c3cccs3)=NN2C(=O)c2ccccc2)cc1OC (stereo unspecified),–,inactive
N#CC1=C(N)OC(c2ccccc2)=C(C#N)C1c1ccc2c(c1)OCO2 (stereo unspecified),"inconclusive: 18.4 µM [activator, partial curve]",–
N#CCc1ccc(NC(=O)CSc2nnc(C3CC3)n2C2CC2)cc1,–,inconclusive: -12.2%
O=C(CSc1nc2ccccc2s1)N/N=C/c1cc([N+](=O)[O-])ccc1O,–,inconclusive: 5.92%
O=C(COC(=O)c1cc(Cl)ccc1O)NCCC1=CCCCC1,–,inconclusive: 6.08%
C=CCn1c(-c2ccc3[nH]c(C)c(C)c3c2)n[nH]c1=S,–,inconclusive: 46.5%
CCOC(=O)c1cccc(NC(=O)Cn2cnc3c2c(=O)n(C)c(=O)n3C)c1,"inconclusive: 1.46 µM [activator, partial curve]",–
O=C(c1cc(-c2ccccc2)nc2ccccc12)N1CCCC1,–,inconclusive: 93.9%
O=C(COc1ccccc1F)Nc1ccc(S(=O)(=O)Nc2nccs2)cc1,–,inconclusive: 29.3%
COc1ccc(C2CC(c3ccccc3)=NN2c2ccccc2)c(C(=O)O)c1OC (stereo unspecified),–,inconclusive: -24.6%
O=[N+]([O-])c1ccc(SCCc2ccccn2)cc1,–,inconclusive: 28.6%
Clc1ccc(CO/N=C2\CCCc3nonc32)c(Cl)c1,–,inconclusive: 5.18%
Cn1c(=O)c(C(=O)NNC(=O)c2ccccc2Br)c(O)c2ccccc21,–,inactive
Cc1nnc(NC(=O)c2cccc(NC(=O)C(C)C)c2)s1,"inconclusive: 1.64 µM [falling, partial curve]",–
CCCCCCOc1ccc(/C(C)=N/NC2=NCCN2)cc1[N+](=O)[O-],"inconclusive: 23.1 µM [falling, partial curve, poor fit]",–
O=C1CC(N2CCOCC2)C(=O)N1c1ccc2c(c1)OCO2 (stereo unspecified),–,inconclusive: 3.54%
O=C(NCCCN1CCOCC1)c1ccc2c(c1)N(Cc1ccccc1)C(=O)c1ccccc1S2=O (stereo unspecified),–,inactive

SMILES,Potency,"lipid storage change, negative = inhibition"
CCn1nnnc1NC(=O)c1cccc(OC)c1,"inconclusive: 0.0731 µM [falling, full curve, poor fit]",–
Cc1ccc(C)c(-c2cc(C(=O)Nc3sc(C)c(C)c3C(N)=O)c3ccccc3n2)c1,–,inconclusive: 2.2%
CN1CCN(Cc2c(O)ccc3c(=O)c(Oc4ccccc4Cl)c(C(F)(F)F)oc23)CC1,–,inconclusive: -11.4%
CCOC(=O)c1sc(NC(=O)C2CC(=O)N(c3ccc(OC)cc3)C2)nc1C (stereo unspecified),–,inconclusive: -0.439%
O=S(=O)(NCc1ccccc1)c1ccc(-c2cnc(C3CC3)o2)cc1,–,inconclusive: -44.8%
Cc1ccc(C(=O)Nc2ccccc2C(=O)Nc2ccccn2)cc1Cl,"inconclusive: 29.1 µM [falling, single point]",–
COc1ccc(CNC(=O)COc2ccc(S(=O)(=O)N3CCOCC3)cc2)cc1,–,inconclusive: 15.8%
CC(=O)Nc1ccc(O)cc1,–,inconclusive: 4.26%
CCOC(=O)C1=C(C)NC(=O)NC1c1ccc(F)cc1 (stereo unspecified),–,inconclusive: 3.08%
O=C(NCc1cccs1)C1CCCN1C(=O)Nc1ccccc1Cl (stereo unspecified),–,inconclusive: -35.1%
CCOc1cc(CNCc2cccnc2)cc(Br)c1OCC(N)=O,"inconclusive: 0.0046 µM [falling, full curve, poor fit]",–
O=C(CSc1nnc(-c2ccc(NS(=O)(=O)c3ccccc3)cc2)o1)NCC1CCCO1 (stereo unspecified),"inconclusive: 0.58 µM [falling, single point]",–
CCCCCN(C(=O)CCC(=O)OCCOc1ccc(OCC)cc1)c1c(N)n(CCCC)c(=O)[nH]c1=O,–,inconclusive: 31.3%
CCN(CC)CCCCCC(=O)Nc1ccccc1C(=O)Nc1ccccc1,–,inconclusive: 8.29%
O=C(O)CCC(=O)N1CCN(S(=O)(=O)c2cccs2)CC1,–,inconclusive: 2.23%
CC1CCCCN1CCNC(=O)c1cc2c(-c3ccccc3F)nn(C)c2s1 (stereo unspecified),–,inconclusive: -13.3%
Cc1ccc(CNC(=O)C2CCCN(S(=O)(=O)N3CCC(C)CC3)C2)cc1 (stereo unspecified),"inconclusive: 6.51 µM [falling, single point]",–
N=C1C(c2nc3ccccc3[nH]2)=C(O)CN1NC(=O)c1c[nH]c2ccccc12,–,inconclusive: 7.43%
